These are yes or no findings as the source states them, for the method shown. In cells and extracts the contact can be indirect. Here binding means that the protein was enriched with, or labelled near, the bait; the list need not be complete.
Legend:
[1] = target: V5-miniTurbo-mCherry-p62 (human), Q13501; experiment: proximity labelling; miniTurbo-mCherry-p62 stably expressed in RPE1 cells, with or without 72 h ATG5 siRNA knock-down; 500 µM biotin and 5 mM ATP for 2 h at 37 °C; streptavidin pull-down and mass spectrometry; proteins found in the mCherry-p62 control removed; conditions: remark: other sources report otherwise
[2] = target: V5-miniTurbo-mCherry-p62 (human) (UniProt Q13501); experiment: as above

B1: ATG13, O75143 1-517 (protein)
chain: METDLNSQDRKDLDKFIKFFALKTVQVIVQARLGEKICTRSSSSPTGSDWFNLAIKDIPEVTHEAKKALAGQLPAVGRSMCVEISLKTSEGDSMELEIWCLEMNEKCDKEIKVSYTVYNRLSLLLKSLLAITRVTPAYRLSRKQGHEYVILYRIYFGEVQLSGLGEGFQTVRVGTVGTPVGTITLSCAYRINLAFMSTRQFERTPPIMGIIIDHFVDRPYPSSSPMHPCNYRTAGEDTGVIYPSVEDSQEVCTTSFSTSPPSQLSSSRLSYQPAALGVGSADLAYPVVFAAGLNATHPHQLMVPGKEGGVPLAPNQPVHGTQADQERLATCTPSDRTHCAATPSSSEDTETVSNSSEGRASPHDVLETIFVRKVGAFVNKPINQVTLTSLDIPFAMFAPKNLELEDTDPMVNPPDSPETESPLQGSLHSDGSSGGSSGNTHDDFVMIDFKPAFSKDDILPMDLGTFYREFQNPPQLSSLSIDIGAQSMAEDLDSLPEKLAVHEKNVREFDAFVETLQ
binding [1]: binds

B2: ZFYVE1/DFCP1 (protein, UniProt Q9HBF4 1-777)
chain: MSAQTSPAEKGLNPGLMCQESYACSGTDEAIFECDECCSLQCLRCEEELHRQERLRNHERIRLKPGHVPYCDLCKGLSGHLPGVRQRAIVRCQTCKINLCLECQKRTHSGGNKRRHPVTVYNVSNLQESLEAEEMDEETKRKKMTEKVVSFLLVDENEEIQVTNEEDFIRKLDCKPDQHLKVVSIFGNTGDGKSHTLNHTFFYGREVFKTSPTQESCTVGVWAAYDPVHKVAVIDTEGLLGATVNLSQRTRLLLKVLAISDLVIYRTHADRLHNDLFKFLGDASEAYLKHFTKELKATTARCGLDVPLSTLGPAVIIFHETVHTQLLGSDHPSEVPEKLIQDRFRKLGRFPEAFSSIHYKGTRTYNPPTDFSGLRRALEQLLENNTTRSPRHPGVIFKALKALSDRFSGEIPDDQMAHSSFFPDEYFTCSSLCLSCGVGCKKSMNHGKEGVPHEAKSRCRYSHQYDNRVYTCKACYERGEEVSVVPKTSASTDSPWMGLAKYAWSGYVIECPNCGVVYRSRQYWFGNQDPVDTVVRTEIVHVWPGTDGFLKDNNNAAQRLLDGMNFMAQSVSELSLGPTKAVTSWLTDQIAPAYWRPNSQILSCNKCATSFKDNDTKHHCRACGEGFCDSCSSKTRPVPERGWGPAPVRVCDNCYEARNVQLAVTEAQVDDEGGTLIARKVGEAVQNTLGAVVTAIDIPLGLVKDAARPAYWVPDHEILHCHNCRKEFSIKLSKHHCRACGQGFCDECSHDRRAVPSRGWDHPVRVCFNCNKKPGDL
binding [2]: binds

Reference: PMC12669770
